In paper PMC5809328 (Neuropharmacology, 2017):

What was measured:
[1] = system: mice; details: mouse, in vivo, sc
[2] = system: mouse; details: in vivo, po; cited from earlier work
[3] = system: mouse; details: in vivo, sc; cited from earlier work

In the case of `CN1CC[C@]23c4c5ccc(O)c4O[C@H]2[C@@H](O)C=C[C@H]3[C@H]1C5` [Morphine], the “EC50 in tail flick assay” value [1] is listed as 2.5 mg/kg, the “EC50 for analgesic activity, acetic acid writhing” value [2] is listed as 0.33 mg/kg and the “EC50 for analgesic activity, tail flick” value [3] is listed as 1.5 mg/kg.
